Results: PubChem BioAssay AID1117319 (Southern Research Institute, 2015)
The campaign covered roughly 260,000 compounds. About 1,500 (0.58%) were called active. Inconclusive means that the source gave no clear call. Such entries were picked first, then a sample of the others.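 How the source made its calls: active means inhibition above a set limit at one or more doses, reproduced on every date tested; inconclusive means results disagree between test dates, or hit never tested in dose response; inactive means the rest.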

By UniProt entry, the sequences of proteins in these tests, tags left out. Where a name states a change or a piece, a line headed by the entry shows the natural chain unless it says otherwise.
UniProt P69720: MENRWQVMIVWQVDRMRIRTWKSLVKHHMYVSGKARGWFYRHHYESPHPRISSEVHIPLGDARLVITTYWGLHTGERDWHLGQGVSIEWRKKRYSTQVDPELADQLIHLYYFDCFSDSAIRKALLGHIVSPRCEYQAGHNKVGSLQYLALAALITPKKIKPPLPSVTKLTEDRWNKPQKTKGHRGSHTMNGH
UniProt P69721: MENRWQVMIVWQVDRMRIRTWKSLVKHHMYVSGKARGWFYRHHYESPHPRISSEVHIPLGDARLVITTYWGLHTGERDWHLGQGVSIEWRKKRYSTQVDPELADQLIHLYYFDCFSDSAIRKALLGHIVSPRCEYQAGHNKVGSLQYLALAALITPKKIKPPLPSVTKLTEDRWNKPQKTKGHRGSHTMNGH
UniProt P69722: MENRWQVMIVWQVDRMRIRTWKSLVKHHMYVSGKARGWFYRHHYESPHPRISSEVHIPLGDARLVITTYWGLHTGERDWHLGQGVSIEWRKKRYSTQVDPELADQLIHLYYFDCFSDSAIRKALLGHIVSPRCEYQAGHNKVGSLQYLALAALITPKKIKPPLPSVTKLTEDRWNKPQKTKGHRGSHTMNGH
UniProt P69723: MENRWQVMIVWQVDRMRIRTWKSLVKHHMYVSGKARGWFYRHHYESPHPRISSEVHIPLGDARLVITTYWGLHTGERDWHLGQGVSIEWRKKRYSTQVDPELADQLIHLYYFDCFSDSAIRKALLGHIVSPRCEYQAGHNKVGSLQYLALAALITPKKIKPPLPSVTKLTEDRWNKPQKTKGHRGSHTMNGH
UniProt Q9HC16: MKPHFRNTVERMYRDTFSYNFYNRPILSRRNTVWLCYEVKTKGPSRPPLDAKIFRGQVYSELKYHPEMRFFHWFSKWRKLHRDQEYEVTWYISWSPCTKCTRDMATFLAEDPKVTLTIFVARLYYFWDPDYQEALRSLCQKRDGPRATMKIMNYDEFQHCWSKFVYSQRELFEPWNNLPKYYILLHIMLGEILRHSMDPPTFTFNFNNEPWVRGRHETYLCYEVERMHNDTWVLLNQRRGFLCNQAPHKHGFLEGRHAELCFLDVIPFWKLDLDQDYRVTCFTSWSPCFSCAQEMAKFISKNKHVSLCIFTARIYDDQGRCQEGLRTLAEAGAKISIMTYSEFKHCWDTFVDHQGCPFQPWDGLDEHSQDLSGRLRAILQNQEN

target: Virion infectivity factor (Human immunodeficiency virus type 1 group M subtype B (isolate BH10)) + Virion infectivity factor (Human immunodeficiency virus type 1 group M subtype B (isolate BRU/LAI)) + Virion infectivity factor (Human immunodeficiency virus type 1 group M subtype B (isolate PCV12)) + Virion infectivity factor (Human immunodeficiency virus type 1 group M subtype B (isolate HXB2)) + DNA dC->dU-editing enzyme APOBEC-3G (Homo sapiens) (UniProt P69720+P69721+P69722+P69723+Q9HC16); experiment: inhibitors of Vif binding to APOBEC3G peptide, primary screen, biochemical, TR-FRET, GST-Vif 1-94, biotin-A3G peptide, dose response retest (AID 1117319); settings: stronger effect = higher value;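 further: Vif residues 1-94 fused to GST binding biotinylated APOBEC3G peptide 110-148; 0% = full assay without inhibitor and 100% = GST in place of GST-Vif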

| Compound | inhibition |
| --- | --- |
| Cc1cccc(C)c1NC(=O)CSCC(=O)c1ccc(O)c(O)c1 | inconclusive: 42.7% |
| COc1ccccc1NC(=S)N(Cc1ccco1)Cc1cc2cc(C)c(C)cc2[nH]c1=O | inconclusive: 47.7% |
| O=c1cc(CO)oc(C(Nc2ccccn2)c2cccc(F)c2)c1O (configuration not stated) | inconclusive: 41.2% |
| Cc1ccc(NC(=O)COc2ccccc2C=O)cc1Cl | inconclusive: 33.1% |
| Cn1c(SCCOc2ccc(F)cc2)nnc1-c1ccncc1 | inactive: -1.32% |
| CC1CCC(C(C)C)C2=C1C(C#N)(C#N)C(C#N)(C#N)C(c1ccccc1)N2 (configuration not stated) | inconclusive: 43.5% |
| CCn1c2ccccc2c2nc3cc(S(=O)(=O)N4CCOCC4)ccc3nc21 | inactive: 2.64% |
| COc1cc(CCC(=O)OCC(=O)Nc2ncc(Cl)cc2Cl)cc(OC)c1OC | inconclusive: 36.8% |
| CC(=O)N1CCc2cc(Br)cc(S(=O)(=O)N3CCC(C(=O)O)CC3)c21 | inconclusive: 42.4% |
| O=S(=O)(c1ccc(Oc2ccc(S(=O)(=O)N(CCO)CCO)cc2)cc1)N(CCO)CCO | inconclusive: 44.9% |
| C/C(=N/NC(=O)c1ccc2c(c1)OCO2)c1ccc(Br)s1 | inconclusive: 47.6% |
| COc1ccc(CNC(=O)COC(=O)/C=C/c2ccc(S(=O)(=O)N3CCOCC3)cc2)cc1 | inconclusive: 41.5% |
| CCOc1cccc(/C=C2\NC(=S)N(c3ccccc3)C2=O)c1O | inactive: 8.76% |
| O=C(NC1CCCCC1)c1cc(-c2ccco2)on1 | inactive: 2.76% |
| Nc1nc(SCC(=O)NCc2ccc(F)cc2)[nH]c(=O)c1NC(=O)c1ccc(Cl)cc1 | inconclusive: 35.9% |
| CC1(OC(=O)C2CCCC2)C(=O)C=C2C=C(c3ccsc3)N(Cc3ccco3)C=C2C1=O (configuration not stated) | inconclusive: 53.6% |
| Cc1ccc(-c2nc3ccccc3[nH]2)cc1NC(=S)NC(=O)c1ccccc1Br | inconclusive: 62.7% |
| Cc1cc([N+](=O)[O-])ccc1NC(=O)Nc1ccc(F)cc1F | inconclusive: 39.2% |
| CC(C)n1c(N2CCN(C(=O)Nc3ccc(F)cc3F)CC2)nc2ccccc21 | inconclusive: 57.1% |

| Compound | inhibition |
| --- | --- |
| CN1C(C(=O)Nc2ccccn2)=C(O)c2ccccc2S1(=O)=O | inconclusive: 43.3% |
| CCOc1ccccc1NC(=O)CSc1n[nH]c(=O)n1-c1ccccc1 | inactive: -11.6% |
| O=C(NCc1ccccc1)/C(=C/c1ccco1)NC(=O)c1ccco1 | inconclusive: 39.2% |
| NCCS | inconclusive: 34.4% |
| COc1ccc(-c2nc3c(Br)c(N)c(Br)cc3o2)cc1 | inconclusive: 53.5% |
| COCCCNC(=O)c1ccc(N(C)S(C)(=O)=O)cc1 | inconclusive: 47.3% |
| COC(=O)C1=C(C)N(C(C)c2ccccc2)C(=O)/C1=C\c1ccco1 (configuration not stated) | inconclusive: 49.1% |
| Cc1ccc(NC(=O)C2CCN(S(=O)(=O)c3ccccc3)CC2)cc1 | inconclusive: 40.9% |
| COCCNCCOc1ccccc1-c1ccccc1 | inconclusive: 55.9% |
| Cc1nn(C)c(Cl)c1/C=C/C(=O)O | inconclusive: 43% |
| O=C(c1ccc(COc2c(F)c(F)c(F)c(F)c2F)o1)N1CCN(Cc2ccc3c(c2)OCO3)CC1 | inconclusive: 58.7% |
| CN(Cc1cc(=O)n2ccsc2n1)c1ccccc1 | inconclusive: 34.8% |
| O=[N+]([O-])c1cccc(C2Nc3cccc4cccc(c34)N2)c1 | inconclusive: 40.9% |
| C=C(C)c1cccc(C(C)(C)NC(=O)Nc2ccc(C)cn2)c1 | inconclusive: 40.7% |
| CCOc1ccc(S(=O)(=O)N(CC(=O)NC2CCCCC2C)Cc2ccco2)cc1 (configuration not stated) | inconclusive: 39% |
| Cc1nc(S(=O)(=O)c2cccc(Cl)c2)nc2c1CCC2 | inconclusive: 34% |
| CC(=O)c1cccc(N/C=C\c2nnnn2-c2ccc(F)cc2)c1 | inactive: -15.5% |
| O=C(Nc1ccc(Cl)cc1)OCc1ccccn1 | inconclusive: 46% |
| O=C(COC(=O)/C=C/c1ccccc1Cl)NC1CCCC1 | inconclusive: 62% |

Taken from above.
Cc1nn(C)c(Cl)c1/C=C/C(=O)O | inhibition: inconclusive: 43%
COC(=O)C1=C(C)N(C(C)c2ccccc2)C(=O)/C1=C\c1ccco1 (configuration not stated) | inhibition: inconclusive: 49.1%
O=C(Nc1ccc(Cl)cc1)OCc1ccccn1 | inhibition: inconclusive: 46%
CN1C(C(=O)Nc2ccccn2)=C(O)c2ccccc2S1(=O)=O | inhibition: inconclusive: 43.3%

Further compounds:

| Compound | inhibition |
| --- | --- |
| O=C(/C=C/c1ccco1)NC(=S)Nc1cccc(-c2nc3ccccc3o2)c1 | inconclusive: 56.9% |
| CC(C)n1c(SCC(N)=O)nc2c1c(=O)n(C)c(=O)n2C | inconclusive: 34.5% |
| O=C(O)c1cccc(Nc2nc(Nc3ccccc3)nc(N3CCCC3)n2)c1 | inconclusive: 35.6% |
| CC(=O)c1sc(N/N=C2\CC3CC2C(C)C3(C)C)nc1C (configuration not stated) | inconclusive: 64% |
| COc1cc(C(=O)NCCc2c[nH]c3ccccc23)ccc1OCc1c(C)noc1C | inconclusive: 41.6% |
| O=C(O)c1ccc(-n2cc(-c3cc4ccccc4oc3=O)[nH]c2=S)cc1 | inconclusive: 37.6% |
| COc1ccc2[nH]c(=O)c(CN(CCCN(C)C)C(=O)Nc3ccccc3)cc2c1 | inconclusive: 51% |
| CCNCc1cc2cc(C)ccc2[nH]c1=O | inconclusive: 48.2% |
| CCn1c(=NC(=O)CN2C(=O)CCC2=O)sc2c(OC)ccc(OC)c21 | inconclusive: 56% |
| O=C(O)c1cc(Cl)c2c(c1)[C@@H]1C=CC[C@@H]1[C@H](c1ccc(S(=O)(=O)N3CCOCC3)cc1)N2 | inconclusive: 64.4% |
| COC(=O)C1C(O)=C(C=NC2CCCCC2)C(=O)CC1(C)C (configuration not stated) | inconclusive: 37.4% |
| O=C(Cn1c2c(c(-c3ccccc3Cl)cc1=O)CCC2)NCCCN1CCOCC1 | inactive: 22.2% |
| CN(Cc1ccc2c(c1)OCO2)C(=O)c1cc(-c2ccccc2)c(N2CCOCC2)s1 | inconclusive: 51.7% |
| Cn1c(Cc2cccc3ccccc23)nnc1SCc1ccc([N+](=O)[O-])cc1 | inconclusive: 56.5% |
| CCC(NC(=O)NNC(N)=S)(C(F)(F)F)C(F)(F)F | inactive: 2.24% |
| COc1ccc(/C=N/N=C(\N)c2nonc2N)cc1OC | inconclusive: 55.1% |
| CCn1c(SCC(=O)Nc2cc(C)on2)nnc1-c1c[nH]c2ccccc12 | inconclusive: 59.6% |
| CCCN1C(=O)/C(=C/c2ccc(C)o2)NC1=S | inconclusive: 41.5% |
| O=C(/C=C/c1ccco1)NC(=S)Nc1ccc(N2CCOCC2)c(Cl)c1 | inconclusive: 41.3% |
